Measurements reported in PubChem BioAssay AID1259424 (University of Nebraska Medical Center, 2018)
Assay: 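Rank knockdowns across the genome by resemblance to the KSR1 depletion profile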 (primary screen). Cell system: human HCT116 colon cancer cells. Knock-down reagent: siRNA pool against human genes, 50 nM. Measurement: 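Log2 levels of six mRNAs (branched-DNA multiplex), adjusted by two reference genes and the non-targeting median, then scored against the average KSR1 knockdown pattern as Pearson r and euclidean distance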. Reading the numbers: mean correlation with KSR1 profile and KSR1 correlation: higher = expression change more like KSR1 knockdown; mean distance from KSR1 profile: higher = expression change less like KSR1 knockdown.
Shown is one part, drawn at random, of about 14,000 reagents tested. 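Higher correlation or smaller distance means closer resemblance to KSR1 loss; control wells, including KSR1 knockdowns, recur on many plates.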 Some reagents were tested in more than one well and are listed for each. Not all columns of the deposit are shown. Not given: the time to read-out.

gene symbol,mean correlation with KSR1 profile,mean distance from KSR1 profile,"KSR1 correlation, replicate 1"
NUDT2 (nudix hydrolase 2),0.853,3.3,0.737
ATRAID (all-trans retinoic acid induced differentiation factor),-0.12,2.62,-0.0385
TOLLIP (toll interacting protein),-0.28,1.85,-0.131
TOLLIP (toll interacting protein),-0.492,2.66,-0.396
STX7 (syntaxin 7),-0.569,3.86,-0.454
TAS1R3 (taste 1 receptor member 3),0.27,3.63,0.358
PLCB3 (phospholipase C beta 3),0.05,1.83,0.0482
MT-ND6 (mitochondrially encoded NADH dehydrogenase 6),0.313,2.33,0.338
COMMD5 (COMM domain containing 5),0.0346,1.91,-0.0064
"RAP1A (RAP1A, member of RAS oncogene family)",0.797,1.08,0.984
PDGFRB (platelet derived growth factor receptor beta),-0.0104,2.78,0.0643
SPINK4 (serine peptidase inhibitor Kazal type 4),-0.169,2.83,-0.317
USP12 (ubiquitin specific peptidase 12),-0.455,1.39,-0.128
CHRNE (cholinergic receptor nicotinic epsilon subunit),0.248,2.62,0.368
THRA (thyroid hormone receptor alpha),0.0502,2.07,0.137
LINC01101 (long independently transcribed non-coding RNA 1101),-0.142,1.99,-0.0937
TBC1D2 (TBC1 domain family member 2),-0.438,2.65,-0.0805
"PROZ (protein Z, vitamin K dependent plasma glycoprotein)",0.757,1.41,0.757
FBXL18 (F-box and leucine rich repeat protein 18),0.153,1.57,0.11
MRPL27 (mitochondrial ribosomal protein L27),0.0635,3.59,0.0848
ZNF140 (zinc finger protein 140),-0.288,2.78,-0.308
EFCAB6 (EF-hand calcium binding domain 6),-0.685,1.84,-0.782
ADH6 (alcohol dehydrogenase 6 (class V)),0.165,2.23,0.104
MEF2A (myocyte enhancer factor 2A),-0.133,2.91,0.126
NMRAL1 (NmrA like redox sensor 1),0.176,3.53,-0.00904
CERCAM (cerebral endothelial cell adhesion molecule),0.305,0.898,0.364
CDK10 (cyclin dependent kinase 10),-0.0115,1.87,0.416
IL1RAP (interleukin 1 receptor accessory protein),-0.123,1.42,-0.0493
"AIDA (axin interactor, dorsalization associated)",0.132,1.71,-0.537
PTP4A2 (protein tyrosine phosphatase 4A2),0.372,1.29,0.272
SLC35D1,-0.157,1.19,-0.561
KLHL4 (kelch like family member 4),0.223,1.37,0.312
DXO (decapping exoribonuclease),0.504,1.36,0.529
CLPX,0.389,3.24,0.405
PDE11A (phosphodiesterase 11A),0.0262,1.43,-0.0343
SLC45A3,0.295,4.54,0.279
SLC3A1,-0.248,1.9,0.0876
ZNF536 (zinc finger protein 536),-0.226,2.9,-0.239
EIF4G1 (eukaryotic translation initiation factor 4 gamma 1),-0.377,3.32,-0.391
ZMYND10 (zinc finger MYND-type containing 10),0.417,1.6,0.222
PLCD1 (phospholipase C delta 1),-0.467,1.23,0.0643
RNASEH2C (ribonuclease H2 subunit C),0.82,1.02,0.869
GPR87 (G protein-coupled receptor 87),0.274,2.13,0.34
KDM2B (lysine demethylase 2B),0.831,2.67,0.659
NDUFB6 (NADH:ubiquinone oxidoreductase subunit B6),-0.575,2.57,-0.296
LHX5 (LIM homeobox 5),0.175,1.4,0.549
FNDC8 (fibronectin type III domain containing 8),-0.522,3.15,-0.541
TBC1D13 (TBC1 domain family member 13),-0.108,2.32,-0.00632
NETO2 (neuropilin and tolloid like 2),0.607,1.18,0.394
AMBP (alpha-1-microglobulin/bikunin precursor),-0.465,3.34,-0.394

Reprinted from the entries so far for reference:
gene symbol,mean correlation with KSR1 profile,mean distance from KSR1 profile,"KSR1 correlation, replicate 1"
RNASEH2C (ribonuclease H2 subunit C),0.82,1.02,0.869
GPR87 (G protein-coupled receptor 87),0.274,2.13,0.34
KDM2B (lysine demethylase 2B),0.831,2.67,0.659
NDUFB6 (NADH:ubiquinone oxidoreductase subunit B6),-0.575,2.57,-0.296
LHX5 (LIM homeobox 5),0.175,1.4,0.549
FNDC8 (fibronectin type III domain containing 8),-0.522,3.15,-0.541
TBC1D13 (TBC1 domain family member 13),-0.108,2.32,-0.00632
NETO2 (neuropilin and tolloid like 2),0.607,1.18,0.394
